Laboratory results taken from PMC9024126.
No constants are given. Whether binding was seen depends on the method and setting. In cells and extracts the contact can be indirect. Some entries that bind do so weakly or less than the wild type. Sequences can lack the tags named with a protein. Blank lines part the entries; values can stand above or below the binder they belong to.

Tests used:
Test in all cases: FRET or BRET; Fast Relaxation Imaging (FReI) in living HeLa cells: IR-laser temperature jumps of 2.2°C at intervals of 50 s from 23.0 to 58.2°C; donor (AcGFP1) to acceptor (mCherry) ratio D/A averaged over the cytoplasm; a decrease of D/A read as intermolecular FRET
[1] = target: APSK37 C43Y (APS kinase domain of human PAPSS2, Δ37, folding sensor with AcGFP1 and mCherry) (human) (UniProt O95340)
[2] = target: APSK37 T48R (APS kinase domain of human PAPSS2, Δ37, folding sensor with AcGFP1 and mCherry) (human) (UniProt O95340)
[3] = target: APSK37 L76Q (APS kinase domain of human PAPSS2, Δ37, folding sensor with AcGFP1 and mCherry) (human) (UniProt O95340)

binding [1]: binds
B1: APSK37 C43Y (APS kinase domain of human PAPSS2, Δ37, folding sensor with AcGFP1 and mCherry) (domain or fragment, UniProt O95340 38-220)
chain: GGFRGYTVWLTGLSGAGKTTISFALEEYLVSHAIPCYSLDGDNVRHGLNRNLGFSPGDREENIRRIAEVAKLFADAGLVCITSFISPFAKDRENARKIHESAGLPFFEIFVDAPLNICESRDVKGLYKRARAGEIKGFTGIDSDYEKPETPERVLKTNLSTVSDCVHQVVELLQEQNIVPYTI

binding [2]: binds
B2: APSK37 T48R (APS kinase domain of human PAPSS2, Δ37, folding sensor with AcGFP1 and mCherry) (domain or fragment, UniProt O95340 38-220)
chain: GGFRGCTVWLRGLSGAGKTTISFALEEYLVSHAIPCYSLDGDNVRHGLNRNLGFSPGDREENIRRIAEVAKLFADAGLVCITSFISPFAKDRENARKIHESAGLPFFEIFVDAPLNICESRDVKGLYKRARAGEIKGFTGIDSDYEKPETPERVLKTNLSTVSDCVHQVVELLQEQNIVPYTI

binding [3]: binds
B3: APSK37 L76Q (APS kinase domain of human PAPSS2, Δ37, folding sensor with AcGFP1 and mCherry) (domain or fragment, UniProt O95340 38-220)
chain: GGFRGCTVWLTGLSGAGKTTISFALEEYLVSHAIPCYSQDGDNVRHGLNRNLGFSPGDREENIRRIAEVAKLFADAGLVCITSFISPFAKDRENARKIHESAGLPFFEIFVDAPLNICESRDVKGLYKRARAGEIKGFTGIDSDYEKPETPERVLKTNLSTVSDCVHQVVELLQEQNIVPYTI
